These are yes or no findings as the source states them, for the method shown. Binding seen in cells or lysates may run through a third protein. A yes stands for co-enrichment or nearness to the bait. Other partners may have been found. One block for each binder: values may come before it.
Assays:
[1] = biological target: SCI1-TurboID (STRIPAK complex interactor 1 fused to TurboID) (Sordaria macrospora); assay: proximity labelling; BioID in vivo in S. macrospora: 3 biological replicates, 3 days in liquid BMM at 27 °C; 10 µM biotin for 4 h (SCI1-TurboID, SCI1-miniTurboID) or 30 min (free TurboID control); lysis with 4 % SDS, capture on Strep-Tactin Sepharose, LC-MS with LFQ; volcano plot against free TurboID, FDR = 0.01, s0 = …
[2] = biological target: SCI1-miniTurboID (STRIPAK complex interactor 1 fused to miniTurboID) (Sordaria macrospora); assay: as above

binding [1]: binds
binding [2]: binds
B1: PRO11 (protein, UniProt Q70M86 1-845)
chain: MGTNGVHVSFGAGHEMGGVMGNGSGQPPATEYTLQGVMRFLQTEWHRHERDRNAWEIEKQEMRARIANLEGQARRADATQKALKRYVSILEKKVKEQSAALKSGGKEKGVEDEAEAEDNKTKLDRSALIQEKLRPNTKLSGAPNEAENVEIGPPDDESARNELKTFLDQCQAEFTYLMVTPANPQPPRESPPLPILDDFREGEALNQQLEQSYQRSQQSQIRDLLAQQAAAANATNVAAVQSQQQQPQQQQHAVGPRPQTNQPPKGYGELAQGAPMERSSRGQQLHDILKSGETPDWSASMQSQPVEEPTSALSKAPPMVRGDGREPAVPKSASTTDAWDFNESNFQDPNAMPQPTPQQSFSSRPDTDAFPSAENLTKSPNRGALSHRRKSSSGMARRRSAEHELSLGSLQQKAEGTMFKFRFGLRGHLDVVRTVIFSGGGSPGEPEICTAGDDGLVKRFHIPDRHIGQRNADGDLDVAADFTHRGHSGAVLSLASWSPSPNFSTGGRAQGDGWIFSGGQDATIRVWERGRVDPKATLDGHTDAVWALCVLPTNLGAIFGQTNSHGPPDRILLVSGAADGTVKVWAVSAPPQLTSPQPGPGRRGPGGRVRGNSMSSGSAFPSSPQPTTASNSPFHHTLVHTIKRANSEASPTCITALSPNGETFAVSYADAAIIVYDTRSGEEIGTMASLDTYDGTNNTAVNAVVATTVGLDQTQGPGGEDESGGGPTGGGRSMAGSGVEGTIISGHEDRYIRFFDANSGQCTYNMLAHPGSVSSLSLSPDGRELVSAGHDMSLRFWSLETRSCTQEMTCHRSMRGEGVCAVVWSQDGRWVVSSGGDGMVKVYAR

binding [1]: binds
binding [2]: binds
B2: PRO22 (protein, UniProt F7VWV9 1-1120)
chain: MTIMNALWSKATSSSGDSAQKSAKPTNDAVNTTSEALPDLSERPNAPALPARPALQRNQPSAPPPAAPSNPPPPVPSGSGSGNANNASAQPQDSLSLAQLRRIVAEFPKSEPIAYDYVYSDMGPIEEEVDEWFFYDFWQYVRLNNANHAFDSAWVKMYGEDETWESVDDDGREKFVRNEVEQLQVSSDKTARVEAIGTLLYIVLGRWTATVKKANLPNLADHKVKSAATKEQLDAMKAGVKLLAKYGGLPPMWDALRKAFELFWADDGDASQRVQANNEELMELMHLMTILYISLQTTMDDVEDMAVARKELLALNPNLVHFMLHATAKLRWDDRNILPQAQVGSATFGIPVAANQHRMLMSSQVFLLFWKSLLLVFGGSKHIAEAKKATAETLSDVKDKEIITASPLDYHVFRQEITSKYPSYIPPQCAIPLEAEQTSILPPLPNHPTRNNGQNGILPGPPNQSASASILHQPVHIATPAPSPPPSPGVGGKGGKKQNYQTNQNFPFMYPPLDATSNSAGGKGGAGLQDLLVGRKWEGSDVPASIIEAGELFSTRTRMTRATRQLWEERERFLKFERGWEGADEDLIDELDLSELTLEEKEELGLLKESEKKKEKHGHEIDLGPRPVDDDIKRRLEAVEEFYKEALPHLQSLVIVLLKAIVAIASSFVQPPPGQQNPGPQNNGRAGGGPPQGRGQNNGNNASNDPPSPSDDNVDEARSREIAAKAVTGIMILLLKWLKLSHILKFEYFTQLLLDSNYLPLVLKLFALHDVQQVVESKTDRIEHSFFYFCASRSGVIPPQGLINPTATDFEDVDVSEDEAAPPAIKRNRSPPGAEKGGPPDASSQPTQQQQQQQRFENSDVQSRPEVDELGYPVNPLPKEPITDFSRRNFFSLINYLRVMQKICKHKAHRNLLLVHYKSSNILRKSLKVPQQELRLYTLKLFKNQVPYCGRKWRQSNMRVITAIYLHCRPELRDEWLSGSDVDAEVEEALPLEQALRSLTHWFNVQRYPERMGAEVTAAMREERDFFTRELEKSDWMGWEGIMAGGGMGMDGGGGGPEPMMGMQGMQGMPGMPGMGMGMNMGMPGMGIGGMPGMGGMAGIEYAAAAAAAQTEHENSMGWS
